Screening data, single-dose tests

The values are deposited in ChEMBL (CHEMBL3988442, “University of Dundee, Small-Polar-MMV Screening Library” (2021)).

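Whole-parasite assay of Trypanosoma brucei over 72 hours; the read-out is not stated. Compounds at 10 µM. Direction is inferred from retests: higher values go with stronger inhibition. Values scatter widely below zero; nearly all retest evidence comes from the higher of the two concentrations used. Of about 2,700 compounds tested this way, about 14 (0.51%) reached 50% or more in at least one test.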

Results are given as percent effect. The record does not define 0% and 100%; most values in the screen are far below 50% and negative numbers occur (in some assays of this library far below -100). Compounds were drawn at random from those tested, without regard to their results.

With CN(Cc1ccsc1)C(=O)CN1CCCC(Cn2cncn2)C1 (configuration not stated) the screen gave -19.65%.
With COc1cc(C)nc(N2CCN(C(=O)CSC)CC2)n1 the screen gave -82.93%.
With CC1CN(CC(=O)NCc2ccccn2)CCN1Cc1nccn1C (configuration not stated) the screen gave -49.29%.
With CCN(CC)CC(=O)N1CCN(c2nc(C)cc(OC)n2)CC1 the screen gave -37.71%.
With CC(=O)NC1CCCN(C(=O)NCc2ccc(-n3cccn3)cc2)C1 (configuration not stated) the screen gave -18.64%.
With COc1ccccc1CC(=O)N1CCC(NCc2ccc(C)o2)CC1 the screen gave -43.05%.
With Cc1cc(C)c(CNC(=O)C2CCN(c3cnccn3)CC2)c(=O)[nH]1 the screen gave -24.83%.
With O=C(NCCc1coc(-c2ccc(F)cc2)n1)NC1CC1 the screen gave 99.81%.
With COc1cc(C(=O)N2CCC(c3n[nH]c(C)n3)CC2)cc(OC)c1C the screen gave -20.28%.
With O=C(NCCCOCC1CC1)Nc1ccc(-n2cncn2)c(F)c1 the screen gave -25.61%.
With COc1cc(C(=O)Nc2nc(C)no2)ccc1OC1CCCC1 the screen gave -19.05%.
With CS(=O)(=O)NC1CCN(C(=O)NCc2cccnc2)CC1 the screen gave -49.75%.
With COc1ccc(C2=CCN(C(=O)CN(CC(N)=O)C(C)C)CC2)cc1 the screen gave -4.386%.
With CCc1c(C(=O)N2CCN(c3cnccn3)CC2)cnn1C(C)(C)C the screen gave -14.56%.
With O=C(NCCc1ccccn1)Nc1cc(C(F)(F)F)c[nH]c1=O the screen gave -103.5%.
With Cc1cnn(CC2CN(CC(=O)N(C)Cc3cnn(C)c3)CCO2)c1 (configuration not stated) the screen gave -3.531%.
With COC(=O)c1cccn1C1CCN(Cc2cnc3ccccn23)CC1 the screen gave -50.27%.
With Cc1ccc(-c2nnc(CN3CCn4c(nnc4C4CC4)C3)o2)cc1 the screen gave -26.15%.
With CCOCCCn1c(NC(=O)c2cnc(C)cn2)nc2ccccc21 the screen gave -41.49%.
With Cc1ccc(C(C)C(=O)N2CCCN(Cc3cscn3)CC2)cc1 (configuration not stated) the screen gave -2.238%.
With CCN1CCC(NC(=O)CN2CCCC2Cn2cc(C)cn2)CC1 (configuration not stated) the screen gave -27.23%.
With CC(C)C(=O)NCc1ccc(N(C)C)cc1 the screen gave -83.98%.
With Cc1cnn(CCNCC(O)COc2ccc(F)cc2)c1 (configuration not stated) the screen gave -4.29%.
With Cc1nc(CN(C)C2CCN(Cc3cccc4c3OCCO4)C2)no1 (configuration not stated) the screen gave -24.48%.
With O=C(NCCOc1ccc2c(c1)OCO2)N1CCCC(CO)C1 (configuration not stated) the screen gave -39.25%.
With O=C(CN1CCOC(CNc2cccnn2)C1)NCc1cccs1 (configuration not stated) the screen gave -32.37%.
With Cc1ccc(-c2nc(CN3CCN(C(=O)C4CC4)CC3)cs2)o1 the screen gave -11.1%.
With COCCCNC(=O)Nc1ccc(F)c(C(N)=O)c1 the screen gave -49.44%.

Some entries from above, unchanged:

structure	effect
Cc1cnn(CC2CN(CC(=O)N(C)Cc3cnn(C)c3)CCO2)c1 (configuration not stated)	-3.531
CC(C)C(=O)NCc1ccc(N(C)C)cc1	-83.98
CCN(CC)CC(=O)N1CCN(c2nc(C)cc(OC)n2)CC1	-37.71